Results deposited as PubChem BioAssay AID504804 (Drosophila RNAi Screening Center, 2011)

- Aim: 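Knock-downs shielding fly cells from apoptosis caused by DNA damage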 (primary screen)
- System: Drosophila Kc cells
- Knock-down reagent: long dsRNA against Drosophila genes, 0.5 µg dsRNA per well
- Time to read-out: 96 h (48 h knock-down, then 48 h drug)
- Challenge: doxorubicin 5 µg/ml for 48 h, added 48 h after dsRNA
- Read-out: 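Viability measured as cellular ATP by luminescence after 48 h knock-down then 48 h doxorubicin at 5 µg/ml; unnormalised plate counts for each replicate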
- Direction: raw ATP luminescence: higher = more viable cells, protection from doxorubicin
- Active means: 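Active when both duplicate wells lie at least 2 SD above the plate mean and protection is confirmed by rescreening and independent dsRNAs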
The deposit covers about 19,000 reagents; below is a random part of those with a known target gene and a result. Over the whole deposit, 47 (0.25%) got an active call. 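Signals are raw, not normalised; exact z-scores behind calls not deposited; actives needed confirmation, so some wells reaching 2 SD are inactive.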 Reagents against one gene are numbered here.

| gene | reagent | raw ATP luminescence, replicate 1 | raw ATP luminescence, replicate 2 | Call |
| --- | --- | --- | --- | --- |
| dl | 1 | 91040 | 88803 | inactive |
| dl | 2 | 69330 | 81030 | inactive |
| CG8180 | 1 | 71523 | 71063 | inactive |
| CG15431 | 1 | 27053 | 39543 | inactive |
| CG34409 | 1 | 60940 | 50560 | inactive |
| Cap-H2 | 1 | 44160 | 26157 | inactive |
| CG12947 | 1 | 62737 | 48213 | inactive |
| CG2614 | 1 | 1.68e5 | 1.81e5 | inactive |
| cib | 1 | 38240 | 37220 | inactive |
| Proc | 1 | 10517 | 13770 | inactive |
| CG7857 | 1 | 44703 | 29043 | inactive |
| Nse4 | 1 | 32560 | 73863 | inactive |
| CG33493 | 1 | 70167 | 60317 | inactive |
| CG12316 | 1 | 38667 | 32733 | inactive |
| Mon1 | 1 | 21273 | 28003 | inactive |
| CG42537 | 1 | 48010 | 54120 | inactive |
| Syx6 | 1 | 65503 | 66953 | inactive |
| CG14515 | 1 | 37840 | 38220 | inactive |
| Clk | 1 | 73893 | 75593 | inactive |
| CG44422 | 1 | 2.70e5 | 3.62e5 | inactive |
| CG44422 | 2 | 2.91e5 | 2.79e5 | inactive |
| CG44422 | 3 | 2.24e5 | 2.63e5 | inactive |
| cdi | 1 | 57690 | 43250 | inactive |
| Cog8 | 1 | 97980 | 65900 | inactive |
| lark | 1 | 46760 | 39283 | inactive |
| vig | 1 | 60823 | 77990 | inactive |
| vig | 2 | 83450 | 71290 | inactive |
| JhI-21 | 1 | 1.09e5 | 74153 | inactive |
| Rbp9 | 1 | 33020 | 29377 | inactive |
| Rbp9 | 2 | 1.02e5 | 65583 | inactive |
| CG2887 | 1 | 2.86e5 | 2.86e5 | inactive |
| CG15459 | 1 | 3.49e5 | 3.35e5 | inactive |
| ENGase | 1 | 1.58e5 | 1.83e5 | inactive |
| ENGase | 2 | 1.86e5 | 1.92e5 | inactive |
| CG16753 | 1 | 40900 | 45050 | inactive |
| CG34451 | 1 | 60087 | 75963 | inactive |
| CG34451 | 2 | 78050 | 86553 | inactive |
| CG13526 | 1 | 60603 | 56167 | inactive |
| Sps1 | 1 | 73400 | 71793 | inactive |
| px | 1 | 32747 | 39407 | inactive |
| t-Grip84 | 1 | 69077 | 76703 | inactive |
| mag | 1 | 26473 | 21650 | inactive |
| CG10916 | 1 | 51480 | 57380 | inactive |
| CG15194 (retired record) | 1 | 3.99e5 | 3.59e5 | inactive |
| CG15194 (retired record) | 2 | 3.28e5 | 3.06e5 | inactive |
| GstD4 | 1 | 56457 | 62637 | inactive |
| CG10993 | 1 | 3.02e5 | 3.44e5 | inactive |
| CG12693 | 1 | 45770 | 49680 | inactive |
| CG14811 | 1 | 54220 | 42770 | inactive |
| Spn28F | 1 | 49727 | 73007 | inactive |
| CG14130 | 1 | 1.01e5 | 68300 | inactive |
| Pabp2 | 1 | 24060 | 41190 | inactive |
| nAChRalpha1 | 1 | 73780 | 82560 | inactive |
| nAChRalpha1 | 2 | 47817 | 53147 | inactive |
| nAChRalpha1 | 3 | 2.70e5 | 2.85e5 | inactive |
| nAChRalpha1 | 4 | 68890 | 56450 | inactive |
| CG4218 | 1 | 47537 | 69447 | inactive |
| sisA | 1 | 3.17e5 | 2.70e5 | inactive |
| nwk | 1 | 58983 | 62107 | inactive |
| BubR1 | 1 | 58897 | 48753 | inactive |
| rod | 1 | 48740 | 52470 | inactive |
| CG1724 | 1 | 2.50e5 | 2.36e5 | inactive |
| Mur89F | 1 | 60570 | 63200 | inactive |
| Rrp40 | 1 | 2.91e5 | 3.21e5 | inactive |
| Nha1 | 1 | 1.25e5 | 81880 | inactive |
| CG4854 | 1 | 38300 | 38370 | inactive |
| Nos | 1 | 76287 | 44477 | inactive |
| Coa7 | 1 | 1.66e5 | 1.80e5 | inactive |
| ArgRS-m | 1 | 61047 | 51030 | inactive |
| Fibp | 1 | 26247 | 25933 | inactive |
| CG4440 | 1 | 45087 | 52120 | inactive |
| Prp4k | 1 | 52640 | 40077 | inactive |
| Ada2a | 1 | 91950 | 76380 | inactive |
| Ugt302K1 | 1 | 21167 | 45403 | inactive |
| Sox21a | 1 | 34017 | 42170 | inactive |
| CG14126 (retired record) | 1 | 89653 | 66893 | inactive |
| CG9616 | 1 | 93730 | 79610 | inactive |
| CG14088 | 1 | 1.05e5 | 65673 | inactive |
| Zcchc7 | 1 | 29857 | 22210 | inactive |
| hoe2 | 1 | 23847 | 29617 | inactive |
| CG32187 | 1 | 66117 | 51713 | inactive |
| sle | 1 | 41650 | 18527 | inactive |
| wb | 1 | 61620 | 68670 | inactive |
| wb | 2 | 68487 | 78897 | inactive |
| VAChT | 1 | 3.10e5 | 2.66e5 | inactive |
| VAChT | 2 | 47697 | 46970 | inactive |
| CG1394 | 1 | 2.16e5 | 2.32e5 | inactive |
| CG7182 | 1 | 36203 | 44033 | inactive |
| Tsp42Eq | 1 | 41260 | 73580 | inactive |
| NdufV3 | 1 | 3.33e5 | 2.85e5 | inactive |
| CG14316 | 1 | 51610 | 68210 | inactive |
| Trmt61 | 1 | 74310 | 62380 | inactive |
| SmydA-4 | 1 | 4.01e5 | 3.62e5 | inactive |
| ND-19 | 1 | 40523 | 56387 | inactive |
| Drep2 | 1 | 43680 | 44343 | inactive |
| CG13516 | 1 | 62803 | 52753 | inactive |
| CG3246 | 1 | 38437 | 43850 | inactive |
| HtrA2 | 1 | 76510 | 83950 | inactive |
| CG12910 | 1 | 48007 | 53357 | inactive |
| CG14070 | 1 | 48873 | 87080 | inactive |
| Gprk1 | 1 | 2.02e5 | 2.10e5 | inactive |
| Gprk1 | 2 | 2.63e5 | 3.15e5 | inactive |
| CG7406 | 1 | 2.51e5 | 2.55e5 | inactive |
| CSN5 | 1 | 39453 | 36713 | inactive |
| NimB4 | 1 | 1.03e5 | 73660 | inactive |
| mAcon2 | 1 | 24630 | 70443 | inactive |
| CG15127 | 1 | 1.27e5 | 1.09e5 | inactive |

Targets above whose target name starts with N or n (11):
| gene | reagent | raw ATP luminescence, replicate 1 | raw ATP luminescence, replicate 2 | Call |
| --- | --- | --- | --- | --- |
| Nse4 | 1 | 32560 | 73863 | inactive |
| nAChRalpha1 | 1 | 73780 | 82560 | inactive |
| nAChRalpha1 | 2 | 47817 | 53147 | inactive |
| nAChRalpha1 | 3 | 2.70e5 | 2.85e5 | inactive |
| nAChRalpha1 | 4 | 68890 | 56450 | inactive |
| nwk | 1 | 58983 | 62107 | inactive |
| Nha1 | 1 | 1.25e5 | 81880 | inactive |
| Nos | 1 | 76287 | 44477 | inactive |
| NdufV3 | 1 | 3.33e5 | 2.85e5 | inactive |
| ND-19 | 1 | 40523 | 56387 | inactive |
| NimB4 | 1 | 1.03e5 | 73660 | inactive |
